The list shows a part of the results.
Compound: c1cn2cc(-c3ccc4cn[nH]c4c3)nc(Nc3ccc(N4CCOCC4)cc3)c2n1 [entospletinib]
Assay: log2 fold change, soluble protein after heating vs DMSO (PISA); higher = thermal stabilisation; K562 cells, 10 uM, 30 min; active = over 0.2 and 3.5 SD of the protein, either way, in both replicates (recomputed)
Procedure, shortened: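 K562 cells at 2×10^6 cells/mL were treated for 30 min with 10 μM compound, and aliquots were heated for 3 min over 48°C-58°C before pooling. Extraction used PBS with 0.5% NP-40 at 4°C, and soluble protein was the supernatant after 21,000xg for 90 min, measured by TMTpro 16plex LC-MS/MS with channel sums equalised. Thermal stability values, relative to control samples and from duplicates, are log2 fold changes.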

Protein sequences, listed by entry. Tags and fused reporters are not part of them. Lines headed by an entry give the natural chain unless they say otherwise; changes in a name come on top.
UniProt Q96G74: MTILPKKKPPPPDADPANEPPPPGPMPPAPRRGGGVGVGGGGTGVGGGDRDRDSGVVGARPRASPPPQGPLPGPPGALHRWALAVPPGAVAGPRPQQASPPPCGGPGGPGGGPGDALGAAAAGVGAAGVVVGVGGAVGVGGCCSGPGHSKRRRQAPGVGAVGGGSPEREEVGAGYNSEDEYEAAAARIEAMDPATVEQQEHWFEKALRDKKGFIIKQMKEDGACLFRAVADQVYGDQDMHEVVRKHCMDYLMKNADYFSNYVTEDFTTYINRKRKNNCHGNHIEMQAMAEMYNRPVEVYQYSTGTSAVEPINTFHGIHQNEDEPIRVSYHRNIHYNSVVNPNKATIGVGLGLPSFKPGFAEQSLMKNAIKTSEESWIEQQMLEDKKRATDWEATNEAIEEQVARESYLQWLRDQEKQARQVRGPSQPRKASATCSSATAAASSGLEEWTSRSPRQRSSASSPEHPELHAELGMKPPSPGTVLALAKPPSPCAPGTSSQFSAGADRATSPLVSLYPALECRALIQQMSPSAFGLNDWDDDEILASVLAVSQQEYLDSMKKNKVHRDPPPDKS
UniProt Q8TEA1: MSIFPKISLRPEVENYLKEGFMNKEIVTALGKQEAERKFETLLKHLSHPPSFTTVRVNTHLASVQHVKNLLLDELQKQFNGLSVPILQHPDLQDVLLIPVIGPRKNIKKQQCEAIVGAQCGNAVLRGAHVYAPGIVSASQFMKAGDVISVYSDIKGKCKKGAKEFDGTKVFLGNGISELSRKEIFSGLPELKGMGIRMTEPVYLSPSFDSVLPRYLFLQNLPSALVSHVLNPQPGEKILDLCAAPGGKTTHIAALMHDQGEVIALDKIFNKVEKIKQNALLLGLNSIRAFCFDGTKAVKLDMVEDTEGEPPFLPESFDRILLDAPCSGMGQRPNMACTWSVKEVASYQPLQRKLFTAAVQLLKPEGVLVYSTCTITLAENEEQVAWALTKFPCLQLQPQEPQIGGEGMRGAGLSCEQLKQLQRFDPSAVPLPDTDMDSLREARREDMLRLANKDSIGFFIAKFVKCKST
UniProt Q99567: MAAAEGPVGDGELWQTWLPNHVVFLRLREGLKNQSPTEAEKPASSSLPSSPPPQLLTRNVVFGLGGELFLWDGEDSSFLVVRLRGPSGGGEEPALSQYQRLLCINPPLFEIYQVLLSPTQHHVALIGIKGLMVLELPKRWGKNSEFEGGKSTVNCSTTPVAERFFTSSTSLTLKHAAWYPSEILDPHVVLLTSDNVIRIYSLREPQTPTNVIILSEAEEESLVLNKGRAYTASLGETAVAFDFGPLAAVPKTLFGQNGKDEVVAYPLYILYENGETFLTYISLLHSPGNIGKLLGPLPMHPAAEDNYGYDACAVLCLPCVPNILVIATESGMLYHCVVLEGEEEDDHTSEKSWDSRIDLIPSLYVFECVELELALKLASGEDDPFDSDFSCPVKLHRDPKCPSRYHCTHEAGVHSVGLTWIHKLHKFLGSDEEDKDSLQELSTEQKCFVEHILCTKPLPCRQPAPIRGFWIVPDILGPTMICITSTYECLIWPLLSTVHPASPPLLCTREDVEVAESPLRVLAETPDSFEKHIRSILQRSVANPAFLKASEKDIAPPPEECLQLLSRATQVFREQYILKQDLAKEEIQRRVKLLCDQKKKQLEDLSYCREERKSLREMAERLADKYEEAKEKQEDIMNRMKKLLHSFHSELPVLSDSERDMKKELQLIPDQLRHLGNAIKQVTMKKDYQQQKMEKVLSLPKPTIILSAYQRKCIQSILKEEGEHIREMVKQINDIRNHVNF
UniProt Q9BW91: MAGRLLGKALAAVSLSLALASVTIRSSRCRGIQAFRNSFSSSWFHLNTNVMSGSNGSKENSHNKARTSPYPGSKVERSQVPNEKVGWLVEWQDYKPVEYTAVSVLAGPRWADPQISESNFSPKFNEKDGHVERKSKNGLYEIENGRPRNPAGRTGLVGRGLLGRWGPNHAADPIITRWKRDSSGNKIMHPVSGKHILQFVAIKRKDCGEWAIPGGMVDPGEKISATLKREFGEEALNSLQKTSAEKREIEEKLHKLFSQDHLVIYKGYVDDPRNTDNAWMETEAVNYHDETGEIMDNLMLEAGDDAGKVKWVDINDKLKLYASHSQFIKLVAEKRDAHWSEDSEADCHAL
UniProt P53384: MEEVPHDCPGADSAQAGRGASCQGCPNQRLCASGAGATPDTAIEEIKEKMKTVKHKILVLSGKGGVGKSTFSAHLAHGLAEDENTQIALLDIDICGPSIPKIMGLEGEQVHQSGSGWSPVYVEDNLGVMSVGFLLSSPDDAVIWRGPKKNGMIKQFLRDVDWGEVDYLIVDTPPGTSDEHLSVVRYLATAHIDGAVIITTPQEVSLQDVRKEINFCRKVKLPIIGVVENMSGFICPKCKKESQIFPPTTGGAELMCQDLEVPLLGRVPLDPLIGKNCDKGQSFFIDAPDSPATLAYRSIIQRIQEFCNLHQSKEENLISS
UniProt Q9Y530: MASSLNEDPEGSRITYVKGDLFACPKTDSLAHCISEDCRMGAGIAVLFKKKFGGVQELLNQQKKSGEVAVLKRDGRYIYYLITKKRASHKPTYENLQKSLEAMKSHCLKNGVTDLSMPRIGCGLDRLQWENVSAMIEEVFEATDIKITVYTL
UniProt Q9BQG2: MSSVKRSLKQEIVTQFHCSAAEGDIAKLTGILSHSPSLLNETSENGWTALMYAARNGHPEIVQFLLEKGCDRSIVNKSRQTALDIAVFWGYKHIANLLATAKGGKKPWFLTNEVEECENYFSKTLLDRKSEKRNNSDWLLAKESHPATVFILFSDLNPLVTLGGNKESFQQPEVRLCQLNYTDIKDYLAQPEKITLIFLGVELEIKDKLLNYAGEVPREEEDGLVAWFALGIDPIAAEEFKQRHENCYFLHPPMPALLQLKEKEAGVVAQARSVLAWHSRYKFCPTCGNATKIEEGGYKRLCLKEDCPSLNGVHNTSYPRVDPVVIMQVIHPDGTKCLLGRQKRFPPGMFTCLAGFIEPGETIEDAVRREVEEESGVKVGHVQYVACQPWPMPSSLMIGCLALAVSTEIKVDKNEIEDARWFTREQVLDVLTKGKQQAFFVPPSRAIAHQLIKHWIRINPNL
UniProt Q96HP4: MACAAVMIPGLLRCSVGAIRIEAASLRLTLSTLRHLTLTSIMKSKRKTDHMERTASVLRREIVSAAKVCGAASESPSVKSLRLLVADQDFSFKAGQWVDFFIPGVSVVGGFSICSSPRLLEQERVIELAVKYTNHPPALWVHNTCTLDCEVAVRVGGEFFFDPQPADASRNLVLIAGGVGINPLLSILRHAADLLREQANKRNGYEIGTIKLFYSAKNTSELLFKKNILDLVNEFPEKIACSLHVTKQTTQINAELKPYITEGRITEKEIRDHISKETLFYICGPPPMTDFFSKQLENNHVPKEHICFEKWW
UniProt P61970, whole entry, looked up: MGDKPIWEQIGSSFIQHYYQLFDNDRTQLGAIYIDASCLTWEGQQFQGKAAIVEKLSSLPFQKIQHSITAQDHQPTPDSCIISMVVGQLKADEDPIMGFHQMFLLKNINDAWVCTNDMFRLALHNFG
UniProt P20774: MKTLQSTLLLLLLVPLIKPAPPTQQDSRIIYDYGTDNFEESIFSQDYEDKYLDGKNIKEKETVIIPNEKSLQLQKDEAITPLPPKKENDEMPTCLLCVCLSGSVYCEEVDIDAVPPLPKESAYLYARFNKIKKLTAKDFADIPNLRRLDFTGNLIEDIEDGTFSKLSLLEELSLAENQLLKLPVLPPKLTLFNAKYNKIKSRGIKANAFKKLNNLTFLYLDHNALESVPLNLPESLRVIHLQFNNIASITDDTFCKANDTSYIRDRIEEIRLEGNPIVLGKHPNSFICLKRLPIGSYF
UniProt Q9BSD7: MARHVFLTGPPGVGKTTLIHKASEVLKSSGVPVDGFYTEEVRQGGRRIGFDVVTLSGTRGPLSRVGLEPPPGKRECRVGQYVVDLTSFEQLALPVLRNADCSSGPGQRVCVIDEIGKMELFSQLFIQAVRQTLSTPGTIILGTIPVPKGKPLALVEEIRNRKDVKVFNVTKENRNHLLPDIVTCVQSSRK
UniProt Q9H8K7: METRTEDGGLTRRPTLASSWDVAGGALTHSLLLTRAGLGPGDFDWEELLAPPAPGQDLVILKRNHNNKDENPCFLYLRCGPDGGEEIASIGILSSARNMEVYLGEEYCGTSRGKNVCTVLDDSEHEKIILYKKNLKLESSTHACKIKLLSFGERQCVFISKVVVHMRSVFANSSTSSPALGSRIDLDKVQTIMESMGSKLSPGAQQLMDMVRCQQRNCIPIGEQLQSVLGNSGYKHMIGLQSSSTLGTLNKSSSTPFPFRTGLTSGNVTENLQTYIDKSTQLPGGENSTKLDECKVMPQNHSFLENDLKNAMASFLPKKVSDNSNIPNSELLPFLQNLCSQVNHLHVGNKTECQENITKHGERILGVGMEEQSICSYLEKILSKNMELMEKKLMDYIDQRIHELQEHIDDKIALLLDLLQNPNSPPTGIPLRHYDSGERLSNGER
UniProt O15504: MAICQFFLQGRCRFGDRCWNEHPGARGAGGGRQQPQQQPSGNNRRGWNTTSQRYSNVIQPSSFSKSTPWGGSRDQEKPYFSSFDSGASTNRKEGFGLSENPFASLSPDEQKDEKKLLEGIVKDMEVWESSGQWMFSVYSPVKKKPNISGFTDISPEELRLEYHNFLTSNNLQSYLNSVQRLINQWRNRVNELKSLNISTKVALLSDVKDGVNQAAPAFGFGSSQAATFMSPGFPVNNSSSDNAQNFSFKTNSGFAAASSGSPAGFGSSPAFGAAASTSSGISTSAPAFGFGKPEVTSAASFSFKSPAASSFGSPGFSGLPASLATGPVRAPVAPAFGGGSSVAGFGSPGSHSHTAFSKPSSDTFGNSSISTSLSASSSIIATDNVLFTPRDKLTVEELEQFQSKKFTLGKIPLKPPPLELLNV
UniProt Q9NPF4: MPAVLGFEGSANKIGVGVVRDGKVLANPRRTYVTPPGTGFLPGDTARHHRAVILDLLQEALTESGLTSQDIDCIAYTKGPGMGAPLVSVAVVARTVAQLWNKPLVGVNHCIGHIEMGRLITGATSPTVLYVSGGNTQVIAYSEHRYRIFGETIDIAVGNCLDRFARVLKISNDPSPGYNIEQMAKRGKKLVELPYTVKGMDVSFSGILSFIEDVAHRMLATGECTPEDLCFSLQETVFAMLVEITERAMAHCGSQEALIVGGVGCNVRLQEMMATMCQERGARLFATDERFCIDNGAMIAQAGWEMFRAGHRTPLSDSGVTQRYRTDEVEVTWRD
UniProt P80303: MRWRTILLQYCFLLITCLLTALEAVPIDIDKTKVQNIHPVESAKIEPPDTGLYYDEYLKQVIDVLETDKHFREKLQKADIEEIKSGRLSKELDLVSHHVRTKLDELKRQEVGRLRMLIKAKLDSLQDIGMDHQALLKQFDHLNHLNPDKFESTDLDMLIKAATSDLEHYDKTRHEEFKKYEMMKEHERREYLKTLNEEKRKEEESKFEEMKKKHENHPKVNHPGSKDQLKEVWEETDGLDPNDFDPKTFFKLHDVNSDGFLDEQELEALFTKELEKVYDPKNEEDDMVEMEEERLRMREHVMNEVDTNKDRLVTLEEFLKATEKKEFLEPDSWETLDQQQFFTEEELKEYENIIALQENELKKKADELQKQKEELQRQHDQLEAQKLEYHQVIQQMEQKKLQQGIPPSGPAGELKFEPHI
UniProt Q9Y266: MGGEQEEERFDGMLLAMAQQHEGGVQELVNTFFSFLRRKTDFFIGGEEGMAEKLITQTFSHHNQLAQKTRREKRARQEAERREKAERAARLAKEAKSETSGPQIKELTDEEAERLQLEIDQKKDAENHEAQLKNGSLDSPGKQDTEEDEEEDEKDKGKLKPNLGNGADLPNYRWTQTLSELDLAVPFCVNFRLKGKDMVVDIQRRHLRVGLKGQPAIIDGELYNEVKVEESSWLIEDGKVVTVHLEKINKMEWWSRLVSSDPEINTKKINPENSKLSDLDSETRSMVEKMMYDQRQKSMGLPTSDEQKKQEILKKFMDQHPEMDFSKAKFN
UniProt Q86UY8: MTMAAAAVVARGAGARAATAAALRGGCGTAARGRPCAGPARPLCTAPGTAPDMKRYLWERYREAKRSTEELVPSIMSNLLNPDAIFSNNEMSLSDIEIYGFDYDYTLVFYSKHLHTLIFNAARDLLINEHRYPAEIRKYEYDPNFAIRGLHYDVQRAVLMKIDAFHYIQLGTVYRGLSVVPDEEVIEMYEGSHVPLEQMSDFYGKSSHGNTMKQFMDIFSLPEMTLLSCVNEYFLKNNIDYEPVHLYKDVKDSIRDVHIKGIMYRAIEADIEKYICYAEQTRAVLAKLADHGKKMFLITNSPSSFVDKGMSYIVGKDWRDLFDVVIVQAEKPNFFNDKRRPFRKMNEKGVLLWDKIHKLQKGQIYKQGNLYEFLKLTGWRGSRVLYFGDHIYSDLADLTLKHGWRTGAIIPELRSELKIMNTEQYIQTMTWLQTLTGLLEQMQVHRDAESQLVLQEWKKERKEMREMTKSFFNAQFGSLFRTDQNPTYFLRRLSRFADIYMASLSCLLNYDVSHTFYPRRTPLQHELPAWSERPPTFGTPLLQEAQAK

log2 fold change, inactive:
NUP50 (UniProt Q9UKX7) -0.035
OTUD5 isoform 5 (UniProt Q96G74) -0.039
NSUN6 (UniProt Q8TEA1) 0.042
OGA (UniProt O60502) -0.018
NUP88 (UniProt Q99567) 0.068
OXCT1 (UniProt P55809) 0.05
NUDT4 (UniProt Q9NZJ9) -0.043
OGT (UniProt O15294) 0.035
NUDT9 (UniProt Q9BW91) 0.012
NUBP1 (UniProt P53384) -0.055
OARD1 (UniProt Q9Y530) 0.009
NUDT12 (UniProt Q9BQG2) -0.001
PA2G4 (UniProt Q9UQ80) 0.008
OPLAH (UniProt O14841) 0.041
OLA1 (UniProt Q9NTK5) -0.064
OXNAD1 (UniProt Q96HP4) -0.002
NUTF2 (UniProt P61970) -0.029
OGN (UniProt P20774) 0.07
NTPCR (UniProt Q9BSD7) 0
NSUN5 isoform 2 (UniProt Q96P11) 0
PAAT (UniProt Q9H8K7) -0.037
OTUB1 (UniProt Q96FW1) -0.058
NUDT15 (UniProt Q9NV35) -0.033
NUP42 (UniProt O15504) 0.047
OSGEP (UniProt Q9NPF4) 0.028
NUP214 isoform 5 (UniProt P35658) 0.099
OBSCN (UniProt A6NGQ3) 0.068
NUCB2 (UniProt P80303) 0.022
NUDC (UniProt Q9Y266) 0.04
OGFOD3 isoform 2 (UniProt Q6PK18) 0.112
NT5DC3 (UniProt Q86UY8) -0.022

Quoted at random: 2 records from the list.
log2 fold change, inactive:
PAAT (UniProt Q9H8K7) -0.037
OPLAH (UniProt O14841) 0.041
